This passage reports log2 fold change results from the supplement of paper PMC10849652.

Amino acid sequences for entries named in this document (tags omitted). A change or cut given only in a name is not applied to a line headed by its entry.
UniProt Q9P2W1: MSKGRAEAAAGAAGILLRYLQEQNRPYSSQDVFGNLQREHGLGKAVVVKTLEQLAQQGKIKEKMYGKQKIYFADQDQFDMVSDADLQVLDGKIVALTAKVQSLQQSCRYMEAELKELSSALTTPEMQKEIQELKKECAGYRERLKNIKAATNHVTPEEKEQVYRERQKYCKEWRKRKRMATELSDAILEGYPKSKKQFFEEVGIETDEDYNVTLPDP
UniProt Q9UKA9: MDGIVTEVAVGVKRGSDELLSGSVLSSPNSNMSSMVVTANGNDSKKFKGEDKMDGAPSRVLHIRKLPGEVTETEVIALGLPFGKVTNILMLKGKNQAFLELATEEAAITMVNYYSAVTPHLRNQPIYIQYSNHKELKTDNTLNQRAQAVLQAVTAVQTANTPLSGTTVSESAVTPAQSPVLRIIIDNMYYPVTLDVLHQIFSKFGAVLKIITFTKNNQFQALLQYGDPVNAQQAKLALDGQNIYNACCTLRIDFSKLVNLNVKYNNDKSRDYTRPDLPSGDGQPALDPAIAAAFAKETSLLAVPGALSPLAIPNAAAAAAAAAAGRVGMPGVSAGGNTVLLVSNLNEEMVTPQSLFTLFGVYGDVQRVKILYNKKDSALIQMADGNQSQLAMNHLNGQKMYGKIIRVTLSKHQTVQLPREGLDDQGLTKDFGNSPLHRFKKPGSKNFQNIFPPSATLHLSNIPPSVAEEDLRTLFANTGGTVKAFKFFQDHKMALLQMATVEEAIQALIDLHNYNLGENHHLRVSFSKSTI
UniProt Q9NYI0: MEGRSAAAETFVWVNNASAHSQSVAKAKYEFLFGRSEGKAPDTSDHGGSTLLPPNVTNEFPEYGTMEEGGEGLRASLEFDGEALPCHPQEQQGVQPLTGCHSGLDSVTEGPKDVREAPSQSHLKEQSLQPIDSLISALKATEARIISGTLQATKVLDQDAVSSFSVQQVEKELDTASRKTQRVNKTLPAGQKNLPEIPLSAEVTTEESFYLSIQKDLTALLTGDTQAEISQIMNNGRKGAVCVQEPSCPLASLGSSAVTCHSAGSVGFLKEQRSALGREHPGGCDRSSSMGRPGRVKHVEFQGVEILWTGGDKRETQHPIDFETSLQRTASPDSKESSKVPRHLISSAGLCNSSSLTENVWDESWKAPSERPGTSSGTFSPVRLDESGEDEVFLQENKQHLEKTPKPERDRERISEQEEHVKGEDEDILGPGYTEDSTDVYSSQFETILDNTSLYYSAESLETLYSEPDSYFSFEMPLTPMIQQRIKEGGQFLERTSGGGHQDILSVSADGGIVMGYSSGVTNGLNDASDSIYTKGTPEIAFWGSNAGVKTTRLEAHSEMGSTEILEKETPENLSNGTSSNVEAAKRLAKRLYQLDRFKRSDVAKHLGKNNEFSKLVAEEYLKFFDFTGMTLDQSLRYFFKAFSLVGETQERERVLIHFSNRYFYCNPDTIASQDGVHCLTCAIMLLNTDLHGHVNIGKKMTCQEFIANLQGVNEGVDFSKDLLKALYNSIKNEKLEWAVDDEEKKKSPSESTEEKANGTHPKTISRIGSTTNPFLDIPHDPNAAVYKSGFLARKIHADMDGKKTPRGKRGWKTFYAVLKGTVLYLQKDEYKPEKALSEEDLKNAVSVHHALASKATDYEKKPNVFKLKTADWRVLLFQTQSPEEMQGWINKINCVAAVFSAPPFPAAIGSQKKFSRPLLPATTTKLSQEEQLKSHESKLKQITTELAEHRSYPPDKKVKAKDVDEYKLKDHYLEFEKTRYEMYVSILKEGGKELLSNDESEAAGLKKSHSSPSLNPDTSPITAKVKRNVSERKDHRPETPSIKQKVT
UniProt Q03393: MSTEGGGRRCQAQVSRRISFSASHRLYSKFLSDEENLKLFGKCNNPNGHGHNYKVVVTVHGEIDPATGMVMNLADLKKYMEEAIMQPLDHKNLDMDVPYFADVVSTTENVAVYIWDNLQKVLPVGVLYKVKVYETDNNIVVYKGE
UniProt P28065: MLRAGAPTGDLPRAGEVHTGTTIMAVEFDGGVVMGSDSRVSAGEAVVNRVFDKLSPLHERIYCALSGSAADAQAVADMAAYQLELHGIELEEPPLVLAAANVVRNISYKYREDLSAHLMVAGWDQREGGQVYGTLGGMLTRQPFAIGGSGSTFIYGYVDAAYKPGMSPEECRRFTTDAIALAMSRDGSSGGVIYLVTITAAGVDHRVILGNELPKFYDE
UniProt P28074: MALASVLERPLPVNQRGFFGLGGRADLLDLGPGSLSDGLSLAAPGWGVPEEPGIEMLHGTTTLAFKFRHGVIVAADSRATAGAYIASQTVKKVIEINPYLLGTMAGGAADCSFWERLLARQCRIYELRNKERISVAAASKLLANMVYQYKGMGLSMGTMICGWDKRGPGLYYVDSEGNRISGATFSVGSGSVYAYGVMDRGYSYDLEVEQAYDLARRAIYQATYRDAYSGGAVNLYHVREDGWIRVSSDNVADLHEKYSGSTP
UniProt P35236: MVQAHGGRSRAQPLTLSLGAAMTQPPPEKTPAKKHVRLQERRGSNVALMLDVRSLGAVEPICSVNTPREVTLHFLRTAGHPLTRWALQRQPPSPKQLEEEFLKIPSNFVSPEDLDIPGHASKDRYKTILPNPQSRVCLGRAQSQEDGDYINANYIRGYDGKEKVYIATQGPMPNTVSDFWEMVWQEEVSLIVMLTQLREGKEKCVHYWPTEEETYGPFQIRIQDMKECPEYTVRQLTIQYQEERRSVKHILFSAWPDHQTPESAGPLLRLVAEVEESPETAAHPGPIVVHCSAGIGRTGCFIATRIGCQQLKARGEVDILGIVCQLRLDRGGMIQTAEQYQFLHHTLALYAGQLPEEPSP
UniProt P28062: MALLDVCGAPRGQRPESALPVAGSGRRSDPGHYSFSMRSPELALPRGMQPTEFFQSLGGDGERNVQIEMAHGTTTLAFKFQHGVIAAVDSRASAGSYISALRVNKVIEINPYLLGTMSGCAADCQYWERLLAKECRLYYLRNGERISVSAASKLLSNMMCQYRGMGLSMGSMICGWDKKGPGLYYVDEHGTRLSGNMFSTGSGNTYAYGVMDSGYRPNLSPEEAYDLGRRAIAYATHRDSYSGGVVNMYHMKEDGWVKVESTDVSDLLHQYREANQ
UniProt O75365, whole entry, looked up: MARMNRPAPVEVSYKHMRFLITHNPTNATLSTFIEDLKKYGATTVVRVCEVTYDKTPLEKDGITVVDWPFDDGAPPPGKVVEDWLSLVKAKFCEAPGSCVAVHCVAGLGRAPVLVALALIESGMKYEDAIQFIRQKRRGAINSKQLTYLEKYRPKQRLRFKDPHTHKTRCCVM
UniProt Q7Z5L2: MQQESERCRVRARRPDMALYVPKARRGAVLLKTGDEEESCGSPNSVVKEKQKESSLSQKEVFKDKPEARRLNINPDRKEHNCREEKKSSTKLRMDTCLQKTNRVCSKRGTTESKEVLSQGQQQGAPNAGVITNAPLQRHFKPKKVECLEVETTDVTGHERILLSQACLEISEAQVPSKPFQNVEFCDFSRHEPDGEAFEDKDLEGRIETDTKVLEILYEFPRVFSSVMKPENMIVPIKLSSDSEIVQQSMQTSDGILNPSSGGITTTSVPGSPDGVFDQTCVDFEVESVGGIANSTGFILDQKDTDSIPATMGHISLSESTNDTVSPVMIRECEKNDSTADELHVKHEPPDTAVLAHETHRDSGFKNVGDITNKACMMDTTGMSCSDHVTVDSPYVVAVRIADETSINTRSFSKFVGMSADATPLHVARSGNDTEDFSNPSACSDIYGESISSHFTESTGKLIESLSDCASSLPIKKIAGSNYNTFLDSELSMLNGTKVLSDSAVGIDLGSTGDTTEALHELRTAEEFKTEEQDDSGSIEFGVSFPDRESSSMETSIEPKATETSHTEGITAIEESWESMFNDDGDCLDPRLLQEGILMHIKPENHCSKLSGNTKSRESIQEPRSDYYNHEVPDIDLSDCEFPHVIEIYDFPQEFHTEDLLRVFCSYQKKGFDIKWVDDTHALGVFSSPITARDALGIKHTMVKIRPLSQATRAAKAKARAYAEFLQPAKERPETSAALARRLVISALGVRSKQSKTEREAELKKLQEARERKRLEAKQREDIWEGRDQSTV
UniProt Q8N0Z8: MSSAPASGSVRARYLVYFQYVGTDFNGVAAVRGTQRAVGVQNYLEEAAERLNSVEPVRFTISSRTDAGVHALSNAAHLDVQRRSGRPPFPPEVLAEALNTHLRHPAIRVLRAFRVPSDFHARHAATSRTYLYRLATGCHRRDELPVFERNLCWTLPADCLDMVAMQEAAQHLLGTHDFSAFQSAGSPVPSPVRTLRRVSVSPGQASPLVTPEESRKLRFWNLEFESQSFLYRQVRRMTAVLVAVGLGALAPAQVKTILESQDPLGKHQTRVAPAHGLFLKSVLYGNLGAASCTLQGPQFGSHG
UniProt Q9UJV8: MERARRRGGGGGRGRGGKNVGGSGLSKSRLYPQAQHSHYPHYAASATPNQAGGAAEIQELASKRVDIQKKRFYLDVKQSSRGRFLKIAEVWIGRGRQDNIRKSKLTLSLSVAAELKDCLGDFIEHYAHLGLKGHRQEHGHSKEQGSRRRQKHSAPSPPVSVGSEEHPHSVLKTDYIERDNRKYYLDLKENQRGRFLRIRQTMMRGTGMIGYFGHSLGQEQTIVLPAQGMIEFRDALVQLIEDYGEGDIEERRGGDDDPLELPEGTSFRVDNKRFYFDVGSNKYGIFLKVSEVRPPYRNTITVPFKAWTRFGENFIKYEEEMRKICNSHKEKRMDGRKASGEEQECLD
UniProt Q86Y79: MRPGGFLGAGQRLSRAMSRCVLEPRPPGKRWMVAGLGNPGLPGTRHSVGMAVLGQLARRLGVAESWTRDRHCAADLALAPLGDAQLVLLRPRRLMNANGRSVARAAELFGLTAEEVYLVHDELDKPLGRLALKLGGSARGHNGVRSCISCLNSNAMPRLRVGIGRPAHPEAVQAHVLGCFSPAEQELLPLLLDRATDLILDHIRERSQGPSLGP
UniProt Q14671: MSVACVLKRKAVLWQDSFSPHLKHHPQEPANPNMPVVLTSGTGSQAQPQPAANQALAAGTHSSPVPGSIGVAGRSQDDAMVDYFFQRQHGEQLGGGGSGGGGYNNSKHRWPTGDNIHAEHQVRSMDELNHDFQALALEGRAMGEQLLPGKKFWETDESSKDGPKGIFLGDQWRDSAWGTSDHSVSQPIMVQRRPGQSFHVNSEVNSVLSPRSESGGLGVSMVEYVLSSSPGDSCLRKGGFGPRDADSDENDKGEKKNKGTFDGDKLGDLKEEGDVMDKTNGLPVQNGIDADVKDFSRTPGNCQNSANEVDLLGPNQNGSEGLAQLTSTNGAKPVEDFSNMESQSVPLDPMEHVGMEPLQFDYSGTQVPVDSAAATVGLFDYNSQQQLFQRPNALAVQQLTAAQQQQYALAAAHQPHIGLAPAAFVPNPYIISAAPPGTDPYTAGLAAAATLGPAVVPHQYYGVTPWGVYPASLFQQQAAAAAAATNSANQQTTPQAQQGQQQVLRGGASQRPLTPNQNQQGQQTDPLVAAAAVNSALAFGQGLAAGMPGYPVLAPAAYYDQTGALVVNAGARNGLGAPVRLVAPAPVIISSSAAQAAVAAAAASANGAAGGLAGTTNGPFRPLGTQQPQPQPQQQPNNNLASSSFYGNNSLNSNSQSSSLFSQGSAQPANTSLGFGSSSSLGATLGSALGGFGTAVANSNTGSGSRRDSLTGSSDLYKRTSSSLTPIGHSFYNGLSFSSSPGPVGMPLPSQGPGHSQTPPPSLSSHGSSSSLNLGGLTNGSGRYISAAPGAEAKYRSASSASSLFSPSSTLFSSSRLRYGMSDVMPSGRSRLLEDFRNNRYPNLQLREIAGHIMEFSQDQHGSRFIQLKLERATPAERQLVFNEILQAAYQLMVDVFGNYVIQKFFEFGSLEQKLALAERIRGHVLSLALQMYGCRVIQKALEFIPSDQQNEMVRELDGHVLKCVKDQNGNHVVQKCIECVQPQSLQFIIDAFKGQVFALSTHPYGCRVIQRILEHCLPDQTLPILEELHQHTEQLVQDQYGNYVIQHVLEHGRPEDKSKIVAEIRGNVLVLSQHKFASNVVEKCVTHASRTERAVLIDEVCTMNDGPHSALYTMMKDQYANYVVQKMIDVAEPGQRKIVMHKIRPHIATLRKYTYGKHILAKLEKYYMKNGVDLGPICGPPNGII
UniProt Q9Y3T6: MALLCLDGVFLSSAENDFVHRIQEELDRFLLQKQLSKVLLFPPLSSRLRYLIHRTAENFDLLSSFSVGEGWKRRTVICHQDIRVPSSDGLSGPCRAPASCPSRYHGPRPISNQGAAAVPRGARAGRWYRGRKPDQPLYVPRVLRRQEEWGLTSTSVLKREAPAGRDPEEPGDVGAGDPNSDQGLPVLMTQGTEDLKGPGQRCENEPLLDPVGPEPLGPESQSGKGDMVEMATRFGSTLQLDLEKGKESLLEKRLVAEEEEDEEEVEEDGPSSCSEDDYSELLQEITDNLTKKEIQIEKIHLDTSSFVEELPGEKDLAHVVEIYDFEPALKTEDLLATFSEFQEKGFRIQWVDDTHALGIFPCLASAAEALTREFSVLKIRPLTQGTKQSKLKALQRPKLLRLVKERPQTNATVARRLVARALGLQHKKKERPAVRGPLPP

The other results are listed elsewhere or left out.

What all share (assay): log2 fold change, soluble protein after heating vs DMSO (PISA); higher = thermal stabilisation; K562 cells, 10 uM, 30 min; active = over 0.2 and 3.5 SD of the protein, either way, in both replicates (recomputed)
Compound in assay [1]: NC(=O)Nc1cc(-c2cccc(F)c2)sc1C(=O)N[C@H]1CCCNC1
Put shortly:
(§1)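 Quantification of soluble protein used TMTpro 16plex LC-MS/MS, with channel sums equalised. Samples were the supernatant after 21,000xg for 90 min of pooled aliquots from K562 cells (2×10^6 cells/mL) treated with 10 μM compound for 30 min, heated for 3 min over 48°C-58°C, and extracted in PBS with 0.5% NP-40 at 4°C. Values, from duplicates, describe thermal stability against control samples on a log2 fold-change scale.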

Compound in assay [2]: NC(=O)c1cnc(N[C@@H]2CCCC[C@@H]2N)nc1Nc1cccc(-n2nccn2)c1
Put shortly: as §1

Compound in assay [3]: NCC(=O)Nc1ccc(-n2nc(C(F)(F)F)cc2-c2ccc3c(ccc4ccccc43)c2)cc1
Summed up: as §1

Compound in the next assay: Nc1ccccc1NC(=O)c1ccc(CNC(=O)OCc2cccnc2)cc1 [entinostat]
Summed up: as §1

Compound in a further assay: O=C(CCCCCCC(=O)Nc1ccccc1)NO [vorinostat]
Summed up:
as §1

Compound in assay [4]: O=C1NC(=O)C(c2cnc3ccccn23)=C1c1cn2c3c(cc(F)cc13)CN(C(=O)N1CCCCC1)CC2
Summed up: as §1

Compound in assay [5]: NC1(c2ccc(-c3nc4ccn5c(=O)[nH]nc5c4cc3-c3ccccc3)cc2)CCC1
Summed up: as §1

Compound in the next assay: O=C(O)c1ccc2c(c1)nc(Nc1cccc(Cl)c1)c1ccncc12 [silmitasertib]
Summed up:
as §1

Compound in another assay: O=C(CCCCCCNC(=O)c1cnc(N(c2ccccc2)c2ccccc2Cl)nc1)NO [citarinostat]
Summed up: as §1

Compound in assay [6]: c1cc(OCCN2CCCCC2)cc(-c2n[nH]c3ccc(-c4nnc[nH]4)cc23)c1
Put shortly:
as §1

Take PTPRS (UniProt Q13332): the log2 fold change in assay [1] is inactive: -0.169; in [2], inactive: 0.271; in assay [3], inactive: -0.093; in the assay with entinostat it was inactive: 0.03; with vorinostat it was inactive: 0.054; in assay [4], inactive: -0.077.
Regarding PTPN9 (UniProt P43378), the values for the log2 fold change (in assay [5]; with vorinostat; with silmitasertib) were inactive: 0.043, inactive: 0.171 and inactive: -0.191, respectively.
In the case of PSMC3IP (UniProt Q9P2W1), the log2 fold change in [2] was inactive: -0.006; in assay [5], inactive: -0.361; in assay [3], inactive: -0.038; in the assay with vorinostat, inactive: 0.134; in the assay with citarinostat, inactive: 0.388; with silmitasertib, inactive: 0.028. Besides, the log2 fold change in [4] was inactive: -0.067; in assay [6] it was inactive: -0.104.
On to PRUNE2 isoform 3 (UniProt Q8WUY3), for which the log2 fold change was inactive: 0.025 in [2]; inactive: 0.126 in [5]; inactive: 0.323 in [3]; inactive: 0.156 with citarinostat; inactive: -0.165 with silmitasertib; inactive: -0.119 in assay [4]. Further, in assay [6], the log2 fold change is inactive: -0.025.
As for PSMC3 (UniProt E9PLG2), the log2 fold change is inactive: -0.62 in [1]; inactive: -0.077 in [5]; inactive: 0.117 in assay [3]; inactive: -0.438 with entinostat; inactive: 0.097 with silmitasertib; inactive: -0.327 in [4].
Turning to PSMC1 (UniProt G3V4X1), in the assay with vorinostat, the log2 fold change is inactive: 0.168.
Regarding PTBP2 isoform 3 (UniProt Q9UKA9), the log2 fold change was inactive: 0.095 in [1], inactive: -0.299 with entinostat and inactive: 0.318 with vorinostat.
In the case of PSD3 (UniProt Q9NYI0), the log2 fold change in assay [2] was active: -0.262; in assay [5], inactive: -0.14; in assay [3], inactive: -0.113; with citarinostat, inactive: 0.017; in the assay with silmitasertib it was inactive: -0.095; in assay [6] it was inactive: -0.02.
Take PSEN1 (UniProt P49768): the log2 fold change in [1] was inactive: -0.052; in [5], inactive: -0.093; in assay [3], inactive: 0.005; in the assay with entinostat, inactive: -0.168; in the assay with citarinostat, inactive: -0.088; with silmitasertib, inactive: 0.012. Besides, the results for the log2 fold change in assay [4] and in assay [6] were inactive: -0.028 and inactive: 0.009, respectively.
As to PTS (UniProt Q03393), the log2 fold change in assay [2] is inactive: -0.006; in assay [5], inactive: 0.054; in assay [3] it was inactive: -0.011; in the assay with vorinostat, inactive: -0.107; in the assay with citarinostat, inactive: 0.063; in the assay with silmitasertib, inactive: -0.027. Moreover, the values for the log2 fold change in [4] and in assay [6] were inactive: -0.182 and inactive: -0.079, respectively.
PSMB9 (UniProt P28065): the log2 fold change in assay [1] was inactive: -0.122; in assay [2], inactive: -0.102; in assay [3], inactive: 0.029; with entinostat, inactive: -0.118; with vorinostat, inactive: 0.086; in the assay with citarinostat, inactive: -0.028. Also, the log2 fold change in assay [4] is inactive: -0.061; in assay [6] it was inactive: 0.
On to PSMB5 isoform 3 (UniProt P28074), for which the log2 fold change in assay [1] was inactive: -0.373; in assay [2], inactive: -0.431; in [3], inactive: -0.397; with entinostat it was inactive: -0.287; with citarinostat, inactive: -0.544; in assay [4], inactive: -0.095. Also, the log2 fold change in assay [6] was inactive: -0.408.
On to PYCR1 (UniProt J3QKT4), for which the log2 fold change was inactive: -0.039 in [2]; inactive: -0.105 in assay [3]; inactive: -0.111 in the assay with vorinostat; inactive: -0.091 with citarinostat; inactive: -0.114 in assay [4]; inactive: -0.096 in [6].
On to PTPN18 (UniProt Q99952), for which the log2 fold change in [1] is inactive: -0.029; in assay [5], inactive: 0.051; with entinostat it was inactive: -0.174; with citarinostat, inactive: -0.035; in the assay with silmitasertib, inactive: -0.025; in [6], inactive: -0.029.
As to PUF60 isoform 2 (UniProt Q9UHX1), the log2 fold change is inactive: 0.024 in [2], inactive: -0.137 in [5], inactive: 0.21 in assay [3] and inactive: 0.069 with silmitasertib.
For the target PYGO2 (UniProt Q9BRQ0), the log2 fold change is inactive: 0.129 in assay [1]; inactive: 0.04 in assay [5]; inactive: 0.21 in assay [3]; inactive: 0.08 in the assay with entinostat; inactive: -0.039 with vorinostat; inactive: -0.14 in the assay with citarinostat. Further, the results for the log2 fold change (in the assay with silmitasertib; in assay [4]; in assay [6]) were inactive: -0.064, inactive: 0.011 and inactive: -0.225, respectively.
On to PSMA3 (UniProt G3V4X5), for which the log2 fold change in assay [3] is inactive: -0.055.
Take PTPRJ (UniProt Q12913): the log2 fold change in assay [1] was inactive: -0.253; with entinostat it was inactive: 0; in assay [4], inactive: -0.095.
For PTGER3 isoform 2 (UniProt P43115), the log2 fold change in assay [2] was inactive: -0.062.
As for PTPN7 isoform 3 (UniProt P35236), the log2 fold change is inactive: 0.012 in assay [1]; inactive: 0.149 in assay [3]; inactive: 0 with entinostat; inactive: 0.068 with citarinostat; inactive: -0.242 in [6].
For the target PTEN isoform 2 (UniProt P60484), the results for the log2 fold change (with vorinostat; in the assay with citarinostat; in [6]) were inactive: 0.024, inactive: 0.089 and inactive: 0.066, respectively.
As to PSMB8 (UniProt P28062), the log2 fold change in assay [2] is inactive: 0.088; with vorinostat, inactive: 0.3.
With PTP4A3 (UniProt O75365), the log2 fold change in assay [3] was inactive: -0.105.
In the case of R3HCC1L (UniProt Q7Z5L2), the log2 fold change in assay [1] was inactive: -0.321; in [2], inactive: -0.023; in assay [3], inactive: 0.006; in the assay with entinostat, inactive: -0.087; in the assay with vorinostat it was inactive: 0.101.
PSIP1 (UniProt V9GYT7): the log2 fold change is inactive: 0.071 in assay [5]; inactive: -0.055 with vorinostat; inactive: -0.077 in the assay with citarinostat; inactive: 0.006 with silmitasertib; inactive: -0.103 in assay [6].
With PUSL1 (UniProt Q8N0Z8), the log2 fold change in assay [1] is inactive: 0.164; in assay [5], inactive: 0.06; with entinostat, inactive: 0.055; in the assay with vorinostat, inactive: -0.048; with citarinostat, inactive: 0.098; in the assay with silmitasertib, inactive: 0.094. Moreover, the log2 fold change in assay [4] was inactive: 0.169; in assay [6] it was inactive: -0.118.
With PURG (UniProt Q9UJV8), the figures for the log2 fold change (in assay [1]; with entinostat; in [4]) were inactive: -0.049, inactive: -0.11 and inactive: 0.434, respectively.
Consider PTRH1 (UniProt Q86Y79), for which the figures for the log2 fold change (in assay [2]; with vorinostat) were inactive: -0.077 and inactive: 0.175, respectively.
The like results for PUM1 (UniProt Q14671) were, in that order, inactive: 0.058 and inactive: -0.037.
On to R3HCC1 (UniProt Q9Y3T6), for which the log2 fold change in assay [1] was inactive: -0.239; in [2], inactive: 0.016; in [3], inactive: -0.019; with entinostat, inactive: -0.084; in the assay with vorinostat it was inactive: -0.045.
PSMA3 (UniProt H0YJ03): the log2 fold change in [2] was inactive: -0.059; in assay [3], inactive: -0.048; with citarinostat, inactive: 0.081; in [6] it was inactive: 0.143.
For the target PSMD8 (UniProt K7ERW6), the log2 fold change in assay [3] is inactive: -0.417.
